PubChem BioAssay AID743454 | Peter MacCallum Cancer Centre – 2014
Here is a random part of about 18,000 reagents tested. In the full data, 450 (2.5%) were called active. 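Single biological run; no consistent viability z cut-off exists, so the class columns, not z-scores, define the calls.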 A number with no mark means an inactive call. Reagent sequences are not shown.

- Screen: 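Genes whose loss kills vorinostat-resistant colon cancer cells under vorinostat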 (primary screen)
- Cells: human HCT116-VR colon cancer cells, selected for vorinostat resistance
- Knock-down reagent: siRNA pool against human genes, 40 nM siRNA pool
- Time to read-out: vorinostat for 24 h, read-out about 72 h after transfection
- Treatment: vorinostat at 2.5 µM final
- Measurement: 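Two measures, CellTiter-Fluor viability and luminescent caspase 3/7 activity, each as fold change against same-plate mock wells, mean of duplicates, then screen-wide robust z-score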
- Reading the numbers: viability robust z-score: higher = more viable cells than screen typical; caspase robust z-score: higher = more caspase 3/7 activity than screen typical
- Rule for the call: 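Hits are knock-downs in viability class RV1/RV2 or caspase class CA1/CA2, excluding ones that killed cells in the no-drug cell-count arm; hits then retested with single siRNAs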

no.	gene knocked down	PubChem SID	viability hit class	caspase hit class	viability robust z-score	caspase robust z-score
1	TNFRSF19	SID134313024	no change	no change	0.72	-0.73
2	SPMAP2	SID134321039	no change (active)	CA1 (caspase activation)	-0.24	5.35
3	VN1R1	SID134317411	no change	no change	-1.38	3.5
4	BIRC6	SID152149918	no change	no change	0.22	-0.88
5	KRT26	SID152156148	no change	no change	-0.88	-0.11
6	SST	SID152153125	no change	no change	0.95	0.09
7	NBPF8	SID135625420	no change	no change	0.15	-0.22
8	CHERP	SID152151588	no change	no change	-0.97	1.04
9	PON1	SID135621725	no change	no change	0.11	2.06
10	XTBD1	SID134319296	no change	no change	0.26	0.46
11	DDIT4L	SID134319743	no change	no change	-0.44	1.77
12	HOXA3	SID152152935	no change	no change	0.38	-0.48
13	CALR3	SID134320230	no change	no change	-1.12	4.82
14	MRPS28	SID134317716	no change	no change	-0.03	2.48
15	CACNA1I	SID152148198	no change	no change	-0.76	-0.04
16	PKLR	SID152148534	no change (active)	CA1 (caspase activation)	-0.74	6.45
17	HACE1	SID152151110	no change	no change	-0.15	2.19
18	NFASC	SID135624250	no change	no change	1.09	-0.41
19	GPR132	SID134310950	no change	no change	-4.37	1.62
20	TMEM205	SID135625161	no change	no change	-1.67	-0.44
21	EHD3	SID134310598	no change	no change	0.43	-0.61
22	MARCKS	SID152148735	no change	no change	0.96	0.18
23	C5orf15	SID134323949	no change	no change	-1.14	-0.04
24	ASPNAT	SID134313945	no change	no change	-2.87	2.75
25	ARFGAP1	SID134317550	no change	no change	0.71	-0.99
26	SERF2	SID152150679	no change	no change	0.98	-0.44
27	ZNF454	SID135623619	no change	no change	-0.66	0.46
28	TPM2	SID152149478	no change	no change	-0.04	-0.9

Targets listed so far whose target name begins with H or h (2):
gene knocked down	PubChem SID	viability hit class	caspase hit class	viability robust z-score	caspase robust z-score
HOXA3	SID152152935	no change	no change	0.38	-0.48
HACE1	SID152151110	no change	no change	-0.15	2.19

More records follow:
no.	gene knocked down	PubChem SID	viability hit class	caspase hit class	viability robust z-score	caspase robust z-score
29	SLC5A6	SID135621416	no change	no change	-0.56	0.72
30	TACSTD2	SID134315107	no change	no change	-0.46	1.39
31	KRT35	SID135622105	no change	no change	0.11	-1
32	SAXO4	SID134320604	no change	no change	-1.06	2.56
33	SOWAHB	SID135624425	no change (active)	CA2 (caspase activation)	-2.68	7.17
34	ZNF555	SID134320032	no change	no change	0.82	-0.58
35	KCNV2	SID134311697	no change	no change	-1.79	4.73
36	CLBA1	SID152151610	no change	no change	1.46	1.47
37	JKAMP	SID152149029	no change	no change	0.21	-0.32
38	PTGS2	SID134310519	no change	no change	-0.13	-0.4
39	OR51B5	SID134329954	no change	no change	0.9	-0.5
40	SLC22A7	SID152147102	no change	no change	-1.04	0.78
41	HLA-G	SID152151638	no change	no change	-4.3	2.34
42	CSPG5	SID152148930	no change	no change	-0.24	0.48
43	ANXA3	SID152146960	no change	no change	1.19	-0.36
44	THOC7	SID152151387	no change	no change	0.04	4.02
45	PNLIP	SID152149178	no change	no change	0.53	-0.53
46	TRIB2	SID56479059	no change	no change	-0.42	0.08
47	RGL3	SID152147440	no change	no change	-0.7	2.13
48	LRRK2	SID152152689	no change	no change	0.66	-0.32
49	TFF2	SID134315043	no change	no change	0.32	0.14
50	ATP6V0A2	SID134323705	no change	no change	0.28	-0.06
51	ATP2A2	SID152151798	no change	no change	1	-0.95
52	DLL1	SID152155535	no change	no change	-0.44	0.12
53	NCSTN	SID152151984	no change	no change	-0.32	-0.6
54	PGC	SID152156494	no change	no change	-0.84	-0.34
55	TRIP11	SID134316945	no change	no change	0.32	0.19
56	GBA2	SID134314129	no change	no change	0.86	-0.54
57	FOXO4	SID152156719	no change	no change	-1.32	4.27
